Results reported in PubChem BioAssay AID186 (DTP/NCI, 2004).
Shown are survivors of the treated group in tumour-free mice. Survivors were counted at the toxicity check, usually on the fifth day, unless a day is given; later deaths do not show. Schedule codes are those of the source, read here as Q, the interval in days (D) or hours (H), X, the number of doses. Some entries were tested several times; the results are listed from low to high.

System: B6D2F1 mice, nontumored toxicity test, survival
Assay: NCI In Vivo Anticancer Drug Screen. Data for tumor model Nontumored Animals (Toxicity Test) in B6D2F1 (BDF1) mice

SMILES: COc1cccc2c1C(=O)c1c(O)c3c(c(O)c1C2=O)C[C@@](O)(C(C)=O)C[C@@H]3OC1CC(NC(C)=O)C(O)C(C)O1 (some centres not stated)
- survivor count (dose: 1.25 mg/kg/injection, schedule: Q03HX016 (ip), vehicle: other): 6 of 6
- survivor count (dose: 1.25 mg/kg/injection, schedule: Q03HX024 (ip), vehicle: other): 6 of 6
- survivor count (dose: 2.5 mg/kg/injection, schedule: Q03HX008 (ip), vehicle: other): 6 of 6
- survivor count (dose: 2.5 mg/kg/injection, schedule: Q03HX016 (ip), vehicle: other): 6 of 6
- survivor count (dose: 2.5 mg/kg/injection, schedule: Q03HX024 (ip), vehicle: other): 6 of 6
- survivor count (dose: 5.0 mg/kg/injection, schedule: Q01DX009 (ip), vehicle: other): 6 of 6
- survivor count (dose: 5.0 mg/kg/injection, schedule: Q01DX009 (oral), vehicle: other): 6 of 6
- survivor count (dose: 5.0 mg/kg/injection, schedule: Q01DX009 (sc), vehicle: other): 6 of 6
- survivor count (dose: 5.0 mg/kg/injection, schedule: Q03HX008 (ip), vehicle: other): 6 of 6
- survivor count (dose: 5.0 mg/kg/injection, schedule: Q03HX016 (ip), vehicle: other): 6 of 6
- survivor count (dose: 5.0 mg/kg/injection, schedule: Q03HX024 (ip), vehicle: other): 6 of 6
- survivor count (dose: 10.0 mg/kg/injection, schedule: Q01DX009 (ip), vehicle: other): 6 of 6
- survivor count (dose: 10.0 mg/kg/injection, schedule: Q01DX009 (oral), vehicle: other): 6 of 6
- survivor count (dose: 10.0 mg/kg/injection, schedule: Q01DX009 (sc), vehicle: other): 6 of 6
- survivor count (dose: 10.0 mg/kg/injection, schedule: Q03HX008 (ip), vehicle: other): 6 of 6
- survivor count (dose: 10.0 mg/kg/injection, schedule: Q03HX016 (ip), vehicle: other): 6 of 6
- survivor count (dose: 10.0 mg/kg/injection, schedule: Q03HX024 (ip), vehicle: other): 5 of 6
- survivor count (dose: 20.0 mg/kg/injection, schedule: Q01DX009 (ip), vehicle: other): 6 of 6
- survivor count (dose: 20.0 mg/kg/injection, schedule: Q01DX009 (oral), vehicle: other): 6 of 6
- survivor count (dose: 20.0 mg/kg/injection, schedule: Q01DX009 (sc), vehicle: other): 5 of 6
- survivor count (dose: 20.0 mg/kg/injection, schedule: Q03HX008 (ip), vehicle: other): 6 of 6
- survivor count (dose: 20.0 mg/kg/injection, schedule: Q03HX016 (ip), vehicle: other): 6 of 6
- survivor count (dose: 20.0 mg/kg/injection, schedule: Q03HX024 (ip), vehicle: other): 6 of 6
- survivor count (dose: 40.0 mg/kg/injection, schedule: Q01DX001 (ip), vehicle: other): 6 of 6
- survivor count (dose: 40.0 mg/kg/injection, schedule: Q01DX001 (oral), vehicle: other): 6 of 6
- survivor count (dose: 40.0 mg/kg/injection, schedule: Q01DX001 (sc), vehicle: other): 6 of 6
- survivor count (dose: 40.0 mg/kg/injection, schedule: Q01DX009 (ip), vehicle: other): 6 of 6
- survivor count (dose: 40.0 mg/kg/injection, schedule: Q01DX009 (oral), vehicle: other): 6 of 6
- survivor count (dose: 40.0 mg/kg/injection, schedule: Q01DX009 (sc), vehicle: other): 6 of 6
- survivor count (dose: 40.0 mg/kg/injection, schedule: Q03HX008 (ip), vehicle: other): 6 of 6
- survivor count (dose: 40.0 mg/kg/injection, schedule: Q04DX003 (ip), vehicle: other): 6 of 6
- survivor count (dose: 40.0 mg/kg/injection, schedule: Q08DX002 (ip), vehicle: other): 6 of 6
- survivor count (dose: 80.0 mg/kg/injection, schedule: Q01DX001 (ip), vehicle: other): 6 of 6
- survivor count (dose: 80.0 mg/kg/injection, schedule: Q01DX001 (oral), vehicle: other): 6 of 6
- survivor count (dose: 80.0 mg/kg/injection, schedule: Q01DX001 (sc), vehicle: other): 6 of 6
- survivor count (dose: 80.0 mg/kg/injection, schedule: Q01DX009 (ip), vehicle: other): 6 of 6
- survivor count (dose: 80.0 mg/kg/injection, schedule: Q01DX009 (oral), vehicle: other): 6 of 6
- survivor count (dose: 80.0 mg/kg/injection, schedule: Q01DX009 (sc), vehicle: other): 6 of 6
- survivor count (dose: 80.0 mg/kg/injection, schedule: Q04DX003 (ip), vehicle: other): 6 of 6
- survivor count (dose: 80.0 mg/kg/injection, schedule: Q08DX002 (ip), vehicle: other): 6 of 6
- survivor count (dose: 160.0 mg/kg/injection, schedule: Q01DX001 (ip), vehicle: other): 6 of 6
- survivor count (dose: 160.0 mg/kg/injection, schedule: Q01DX001 (oral), vehicle: other): 6 of 6
- survivor count (dose: 160.0 mg/kg/injection, schedule: Q01DX001 (sc), vehicle: other): 6 of 6
- survivor count (dose: 160.0 mg/kg/injection, schedule: Q01DX009 (ip), vehicle: other): 6 of 6
- survivor count (dose: 160.0 mg/kg/injection, schedule: Q01DX009 (oral), vehicle: other): 6 of 6
- survivor count (dose: 160.0 mg/kg/injection, schedule: Q01DX009 (sc), vehicle: other): 6 of 6
- survivor count (dose: 160.0 mg/kg/injection, schedule: Q04DX003 (ip), vehicle: other): 6 of 6
- survivor count (dose: 160.0 mg/kg/injection, schedule: Q08DX002 (ip), vehicle: other): 6 of 6
- survivor count (dose: 320.0 mg/kg/injection, schedule: Q01DX001 (ip), vehicle: other): 6 of 6
- survivor count (dose: 320.0 mg/kg/injection, schedule: Q01DX001 (oral), vehicle: other): 6 of 6
- survivor count (dose: 320.0 mg/kg/injection, schedule: Q01DX001 (sc), vehicle: other): 6 of 6
- survivor count (dose: 320.0 mg/kg/injection, schedule: Q04DX003 (ip), vehicle: other): 6 of 6
- survivor count (dose: 320.0 mg/kg/injection, schedule: Q08DX002 (ip), vehicle: other): 6 of 6

SMILES: CCO
- survivor count (dose: 2.0 grams/kg/injection, schedule: Q01DX001 (ip), vehicle: water): 10 of 10
- survivor count (dose: 3.0 grams/kg/injection, schedule: Q01DX001 (ip), vehicle: water): 10 of 10
- survivor count (dose: 4.0 grams/kg/injection, schedule: Q01DX001 (ip), vehicle: water): 10 of 10
- survivor count (dose: 5.0 grams/kg/injection, schedule: Q01DX001 (ip), vehicle: water): 10 of 10
- survivor count (dose: 6.0 grams/kg/injection, schedule: Q01DX001 (ip), vehicle: water): 9 of 10
- survivor count (dose: 8.0 grams/kg/injection, schedule: Q01DX001 (ip), vehicle: water): 0 of 10

SMILES: C[C@@H](CN1CC(=O)NC(=O)C1)N1CC(=O)NC(=O)C1
- survivor count (dose: 8.0 mg/kg/injection, schedule: Q01DX009 (ip), vehicle: saline): 8 of 8
- survivor count (dose: 8.0 mg/kg/injection, schedule: Q01DX009 (oral), vehicle: saline): 7 of 7 and 8 of 8
- survivor count (dose: 8.0 mg/kg/injection, schedule: Q01DX009 (sc), vehicle: saline): 8 of 8
- survivor count (dose: 8.0 mg/kg/injection, schedule: Q03HX016 (ip), vehicle: saline): 8 of 8
- survivor count (dose: 8.0 mg/kg/injection, schedule: Q03HX024 (ip), vehicle: saline): 7 of 7
- survivor count (dose: 16.0 mg/kg/injection, schedule: Q01DX009 (ip), vehicle: saline): 7 of 7 and 8 of 8
- survivor count (dose: 16.0 mg/kg/injection, schedule: Q01DX009 (oral), vehicle: saline): 8 of 8
- survivor count (dose: 16.0 mg/kg/injection, schedule: Q01DX009 (sc), vehicle: saline): 8 of 8
- survivor count (dose: 16.0 mg/kg/injection, schedule: Q03HX016 (ip), vehicle: saline): 8 of 8
- survivor count (dose: 16.0 mg/kg/injection, schedule: Q03HX024 (ip), vehicle: saline): 8 of 8
- survivor count (dose: 32.0 mg/kg/injection, schedule: Q01DX009 (ip), vehicle: saline): 8 of 8
- survivor count (dose: 32.0 mg/kg/injection, schedule: Q01DX009 (oral), vehicle: saline): 6 of 8 and 8 of 8
- survivor count (dose: 32.0 mg/kg/injection, schedule: Q01DX009 (sc), vehicle: saline): 8 of 8
- survivor count (dose: 32.0 mg/kg/injection, schedule: Q03HX016 (ip), vehicle: saline): 8 of 8
- survivor count (dose: 32.0 mg/kg/injection, schedule: Q03HX024 (ip), vehicle: saline): 8 of 8
- survivor count (dose: 64.0 mg/kg/injection, schedule: Q01DX009 (ip), vehicle: saline): 7 of 8, 7 of 7, 8 of 8
- survivor count (dose: 64.0 mg/kg/injection, schedule: Q01DX009 (oral), vehicle: saline): 5 of 8, 7 of 8, 8 of 8
- survivor count (dose: 64.0 mg/kg/injection, schedule: Q01DX009 (sc), vehicle: saline): 8 of 8
- survivor count (dose: 64.0 mg/kg/injection, schedule: Q03HX016 (ip), vehicle: saline): 8 of 8
- survivor count (dose: 64.0 mg/kg/injection, schedule: Q03HX024 (ip), vehicle: saline): 8 of 8
- survivor count (dose: 64.0 mg/kg/injection, schedule: Q04DX003 (ip), vehicle: saline): 8 of 8
- survivor count (dose: 64.0 mg/kg/injection, schedule: Q04DX003 (sc), vehicle: saline): 8 of 8
- survivor count (dose: 64.0 mg/kg/injection, schedule: Q08DX002 (ip), vehicle: saline): 8 of 8
- survivor count (dose: 128.0 mg/kg/injection, schedule: Q01DX009 (oral), vehicle: saline): 3 of 8 and 8 of 8
- survivor count (dose: 128.0 mg/kg/injection, schedule: Q01DX009 (sc), vehicle: saline): 8 of 8
- survivor count (dose: 128.0 mg/kg/injection, schedule: Q03HX016 (ip), vehicle: saline): 8 of 8
- survivor count (dose: 128.0 mg/kg/injection, schedule: Q03HX024 (ip), vehicle: saline): 8 of 8
- survivor count (dose: 128.0 mg/kg/injection, schedule: Q04DX003 (ip), vehicle: saline): 8 of 8
- survivor count (dose: 128.0 mg/kg/injection, schedule: Q04DX003 (sc), vehicle: saline): 8 of 8
- survivor count (dose: 128.0 mg/kg/injection, schedule: Q08DX002 (ip), vehicle: saline): 8 of 8
- survivor count (dose: 256.0 mg/kg/injection, schedule: Q04DX003 (ip), vehicle: saline): 8 of 8
- survivor count (dose: 256.0 mg/kg/injection, schedule: Q04DX003 (oral), vehicle: saline): 8 of 8
- survivor count (dose: 256.0 mg/kg/injection, schedule: Q04DX003 (sc), vehicle: saline): 8 of 8
- survivor count (dose: 256.0 mg/kg/injection, schedule: Q08DX002 (ip), vehicle: saline): 8 of 8
- survivor count (dose: 512.0 mg/kg/injection, schedule: Q04DX003 (ip), vehicle: saline): 8 of 8
- survivor count (dose: 512.0 mg/kg/injection, schedule: Q04DX003 (oral), vehicle: saline): 8 of 8
- survivor count (dose: 512.0 mg/kg/injection, schedule: Q04DX003 (sc), vehicle: saline): 8 of 8
- survivor count (dose: 512.0 mg/kg/injection, schedule: Q08DX002 (ip), vehicle: saline): 8 of 8
- survivor count (dose: 1024.0 mg/kg/injection, schedule: Q04DX003 (ip), vehicle: saline): 8 of 8
- survivor count (dose: 1024.0 mg/kg/injection, schedule: Q04DX003 (oral), vehicle: saline): 8 of 8
- survivor count (dose: 1024.0 mg/kg/injection, schedule: Q04DX003 (sc), vehicle: saline): 8 of 8
- survivor count (dose: 1024.0 mg/kg/injection, schedule: Q08DX002 (ip), vehicle: saline): 8 of 8
- survivor count (dose: 2048.0 mg/kg/injection, schedule: Q04DX003 (oral), vehicle: saline): 8 of 8
